Data: the supplement of paper PMC10849652
The list shows a part of the results.

Sequences of proteins named here, by UniProt entry; tags and fusion partners are left off. A change or cut given only in a name is not applied to a line headed by its entry.
UniProt P61970, whole entry, looked up: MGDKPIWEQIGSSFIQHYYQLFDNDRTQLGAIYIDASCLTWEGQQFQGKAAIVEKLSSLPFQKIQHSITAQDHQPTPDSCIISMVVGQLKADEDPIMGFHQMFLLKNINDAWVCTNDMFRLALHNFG
UniProt P20774: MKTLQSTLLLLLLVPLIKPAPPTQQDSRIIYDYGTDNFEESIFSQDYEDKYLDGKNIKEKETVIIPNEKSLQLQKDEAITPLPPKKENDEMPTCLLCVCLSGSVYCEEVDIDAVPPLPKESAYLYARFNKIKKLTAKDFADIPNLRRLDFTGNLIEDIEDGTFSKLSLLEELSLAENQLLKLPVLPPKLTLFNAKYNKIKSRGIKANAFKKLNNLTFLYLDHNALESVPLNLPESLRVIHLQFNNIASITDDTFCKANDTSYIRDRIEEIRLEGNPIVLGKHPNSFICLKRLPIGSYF
UniProt P07237: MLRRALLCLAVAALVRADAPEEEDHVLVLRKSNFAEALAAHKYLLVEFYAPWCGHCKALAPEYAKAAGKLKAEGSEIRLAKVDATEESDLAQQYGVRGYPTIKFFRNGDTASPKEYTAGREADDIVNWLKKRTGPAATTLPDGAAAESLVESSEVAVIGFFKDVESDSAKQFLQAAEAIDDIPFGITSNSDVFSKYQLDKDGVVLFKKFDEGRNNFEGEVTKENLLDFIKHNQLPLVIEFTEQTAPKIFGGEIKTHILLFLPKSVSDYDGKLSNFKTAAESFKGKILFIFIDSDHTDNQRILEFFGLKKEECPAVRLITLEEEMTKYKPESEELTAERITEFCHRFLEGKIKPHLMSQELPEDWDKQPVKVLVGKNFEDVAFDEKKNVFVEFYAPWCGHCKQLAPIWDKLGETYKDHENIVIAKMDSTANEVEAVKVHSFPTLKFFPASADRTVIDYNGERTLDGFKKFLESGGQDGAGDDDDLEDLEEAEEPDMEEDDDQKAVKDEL
UniProt P11940, whole entry, looked up: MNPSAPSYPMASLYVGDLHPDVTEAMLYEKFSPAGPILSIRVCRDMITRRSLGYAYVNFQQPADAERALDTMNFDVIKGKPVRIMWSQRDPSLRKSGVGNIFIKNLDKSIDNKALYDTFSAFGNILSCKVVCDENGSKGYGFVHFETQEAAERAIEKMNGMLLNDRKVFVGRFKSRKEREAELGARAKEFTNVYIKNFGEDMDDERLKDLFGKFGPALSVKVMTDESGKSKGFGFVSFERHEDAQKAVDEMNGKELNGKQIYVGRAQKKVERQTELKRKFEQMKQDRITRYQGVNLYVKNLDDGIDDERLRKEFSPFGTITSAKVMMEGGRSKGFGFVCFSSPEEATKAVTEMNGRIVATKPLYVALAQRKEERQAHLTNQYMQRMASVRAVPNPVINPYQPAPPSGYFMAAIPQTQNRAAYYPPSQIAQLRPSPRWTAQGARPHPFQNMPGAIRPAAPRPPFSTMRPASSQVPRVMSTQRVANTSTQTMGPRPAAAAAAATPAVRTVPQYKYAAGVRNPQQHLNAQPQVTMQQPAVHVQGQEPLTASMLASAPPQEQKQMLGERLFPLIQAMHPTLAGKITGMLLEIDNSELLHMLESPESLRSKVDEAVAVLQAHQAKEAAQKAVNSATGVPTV
UniProt P35658: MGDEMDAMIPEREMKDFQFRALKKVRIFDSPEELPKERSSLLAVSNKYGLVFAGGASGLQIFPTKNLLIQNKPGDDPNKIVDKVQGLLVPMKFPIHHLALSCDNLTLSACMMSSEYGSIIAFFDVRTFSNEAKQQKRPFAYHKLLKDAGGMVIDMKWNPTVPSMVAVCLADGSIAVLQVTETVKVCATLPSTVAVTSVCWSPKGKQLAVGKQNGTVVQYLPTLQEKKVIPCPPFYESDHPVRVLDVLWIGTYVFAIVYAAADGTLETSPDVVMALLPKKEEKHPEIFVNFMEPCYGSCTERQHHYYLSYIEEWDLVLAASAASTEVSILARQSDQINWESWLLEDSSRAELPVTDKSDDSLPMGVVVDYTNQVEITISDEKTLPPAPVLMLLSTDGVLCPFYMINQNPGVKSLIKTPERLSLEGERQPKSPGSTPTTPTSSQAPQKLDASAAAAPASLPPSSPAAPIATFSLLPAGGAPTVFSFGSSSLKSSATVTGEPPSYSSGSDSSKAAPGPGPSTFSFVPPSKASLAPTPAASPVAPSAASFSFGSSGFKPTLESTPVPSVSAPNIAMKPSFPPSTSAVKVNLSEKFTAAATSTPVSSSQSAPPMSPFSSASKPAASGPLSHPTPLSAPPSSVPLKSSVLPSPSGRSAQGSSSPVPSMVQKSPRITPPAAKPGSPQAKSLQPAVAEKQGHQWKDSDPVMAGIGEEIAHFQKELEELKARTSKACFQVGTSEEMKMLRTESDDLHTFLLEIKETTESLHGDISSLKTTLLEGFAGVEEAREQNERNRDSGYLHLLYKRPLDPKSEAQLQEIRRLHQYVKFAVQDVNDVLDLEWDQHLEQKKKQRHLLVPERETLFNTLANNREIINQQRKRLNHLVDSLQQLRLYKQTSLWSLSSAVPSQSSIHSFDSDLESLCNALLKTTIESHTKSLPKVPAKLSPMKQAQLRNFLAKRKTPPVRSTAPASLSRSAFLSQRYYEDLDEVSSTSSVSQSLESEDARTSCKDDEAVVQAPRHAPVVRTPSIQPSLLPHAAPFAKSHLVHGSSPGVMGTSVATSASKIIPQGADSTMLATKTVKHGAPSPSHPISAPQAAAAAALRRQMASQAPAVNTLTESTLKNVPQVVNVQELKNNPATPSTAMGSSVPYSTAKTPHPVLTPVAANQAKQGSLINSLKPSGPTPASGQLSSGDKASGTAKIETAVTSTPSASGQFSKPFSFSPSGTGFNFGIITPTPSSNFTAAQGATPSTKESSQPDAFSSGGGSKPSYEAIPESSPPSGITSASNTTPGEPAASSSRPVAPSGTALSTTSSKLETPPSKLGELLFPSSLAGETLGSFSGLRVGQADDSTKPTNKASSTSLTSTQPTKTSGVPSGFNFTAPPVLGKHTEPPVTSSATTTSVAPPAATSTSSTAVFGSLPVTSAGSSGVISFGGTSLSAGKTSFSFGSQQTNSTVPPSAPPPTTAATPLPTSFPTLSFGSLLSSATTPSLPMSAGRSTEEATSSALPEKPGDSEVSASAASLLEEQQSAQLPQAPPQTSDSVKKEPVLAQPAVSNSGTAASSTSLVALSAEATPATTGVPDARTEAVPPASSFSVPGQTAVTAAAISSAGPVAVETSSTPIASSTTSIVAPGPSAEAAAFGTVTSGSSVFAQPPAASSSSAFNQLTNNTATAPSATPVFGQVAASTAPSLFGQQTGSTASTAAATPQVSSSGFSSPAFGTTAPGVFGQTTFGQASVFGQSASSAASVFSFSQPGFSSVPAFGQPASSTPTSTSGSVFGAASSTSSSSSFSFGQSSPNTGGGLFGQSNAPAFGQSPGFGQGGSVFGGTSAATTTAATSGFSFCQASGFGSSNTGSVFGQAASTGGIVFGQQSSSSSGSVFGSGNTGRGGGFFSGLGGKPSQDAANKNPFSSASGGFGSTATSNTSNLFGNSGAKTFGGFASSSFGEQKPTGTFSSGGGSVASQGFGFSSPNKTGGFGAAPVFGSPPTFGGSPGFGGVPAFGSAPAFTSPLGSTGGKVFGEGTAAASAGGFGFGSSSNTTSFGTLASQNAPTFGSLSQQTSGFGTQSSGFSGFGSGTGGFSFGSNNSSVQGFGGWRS
UniProt Q9BRJ7: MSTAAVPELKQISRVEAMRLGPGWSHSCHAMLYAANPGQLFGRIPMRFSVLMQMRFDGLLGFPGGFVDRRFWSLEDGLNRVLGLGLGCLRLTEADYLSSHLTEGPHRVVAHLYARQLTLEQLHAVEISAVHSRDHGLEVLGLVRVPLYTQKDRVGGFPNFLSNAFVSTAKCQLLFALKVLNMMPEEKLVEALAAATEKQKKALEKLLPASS
UniProt Q96G74: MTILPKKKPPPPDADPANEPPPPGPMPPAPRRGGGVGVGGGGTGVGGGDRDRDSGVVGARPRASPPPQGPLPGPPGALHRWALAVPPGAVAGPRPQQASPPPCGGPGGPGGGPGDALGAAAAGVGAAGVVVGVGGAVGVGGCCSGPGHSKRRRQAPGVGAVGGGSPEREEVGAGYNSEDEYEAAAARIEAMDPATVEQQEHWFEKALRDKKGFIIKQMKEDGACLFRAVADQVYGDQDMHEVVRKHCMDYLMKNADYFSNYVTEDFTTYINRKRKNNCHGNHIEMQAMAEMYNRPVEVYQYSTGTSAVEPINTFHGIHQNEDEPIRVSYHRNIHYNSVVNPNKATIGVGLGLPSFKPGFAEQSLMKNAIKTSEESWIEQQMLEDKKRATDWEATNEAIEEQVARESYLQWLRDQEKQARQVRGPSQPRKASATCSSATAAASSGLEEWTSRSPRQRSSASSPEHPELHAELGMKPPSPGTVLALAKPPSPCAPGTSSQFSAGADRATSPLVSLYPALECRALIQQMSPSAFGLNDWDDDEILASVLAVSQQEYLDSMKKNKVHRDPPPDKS
UniProt O60502: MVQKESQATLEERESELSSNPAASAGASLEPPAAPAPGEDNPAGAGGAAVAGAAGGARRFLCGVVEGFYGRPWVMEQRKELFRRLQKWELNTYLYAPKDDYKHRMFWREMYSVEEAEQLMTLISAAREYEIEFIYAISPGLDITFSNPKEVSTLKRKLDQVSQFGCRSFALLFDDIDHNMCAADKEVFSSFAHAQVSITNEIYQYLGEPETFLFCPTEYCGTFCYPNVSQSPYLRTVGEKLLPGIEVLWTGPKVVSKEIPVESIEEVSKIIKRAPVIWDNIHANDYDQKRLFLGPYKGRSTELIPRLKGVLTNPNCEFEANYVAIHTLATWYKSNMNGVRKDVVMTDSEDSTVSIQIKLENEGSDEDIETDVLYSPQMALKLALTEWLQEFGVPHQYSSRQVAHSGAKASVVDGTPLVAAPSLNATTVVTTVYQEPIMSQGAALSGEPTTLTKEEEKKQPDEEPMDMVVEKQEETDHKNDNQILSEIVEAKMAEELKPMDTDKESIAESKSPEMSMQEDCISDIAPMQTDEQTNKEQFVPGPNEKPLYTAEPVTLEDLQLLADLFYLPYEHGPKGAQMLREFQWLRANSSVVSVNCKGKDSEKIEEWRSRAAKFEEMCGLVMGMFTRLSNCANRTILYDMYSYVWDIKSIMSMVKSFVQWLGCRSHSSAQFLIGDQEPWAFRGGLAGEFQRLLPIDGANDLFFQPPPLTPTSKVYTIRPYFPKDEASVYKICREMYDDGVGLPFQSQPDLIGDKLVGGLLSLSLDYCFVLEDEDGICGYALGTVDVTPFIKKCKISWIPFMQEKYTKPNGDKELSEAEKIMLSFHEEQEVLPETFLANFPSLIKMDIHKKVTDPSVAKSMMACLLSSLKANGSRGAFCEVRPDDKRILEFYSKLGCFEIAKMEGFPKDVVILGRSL
UniProt Q5SWX8: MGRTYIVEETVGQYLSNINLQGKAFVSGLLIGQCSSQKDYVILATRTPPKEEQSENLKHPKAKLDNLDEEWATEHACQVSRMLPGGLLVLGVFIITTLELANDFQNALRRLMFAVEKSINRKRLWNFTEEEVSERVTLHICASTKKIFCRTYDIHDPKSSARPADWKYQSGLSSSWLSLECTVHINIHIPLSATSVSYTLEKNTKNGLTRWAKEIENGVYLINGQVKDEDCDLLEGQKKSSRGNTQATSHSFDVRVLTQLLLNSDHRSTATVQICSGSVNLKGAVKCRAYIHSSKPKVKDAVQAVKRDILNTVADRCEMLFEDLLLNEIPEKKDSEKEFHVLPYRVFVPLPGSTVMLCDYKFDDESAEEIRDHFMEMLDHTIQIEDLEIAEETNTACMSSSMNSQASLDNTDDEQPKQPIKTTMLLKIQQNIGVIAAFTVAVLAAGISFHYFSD
UniProt Q96HP4: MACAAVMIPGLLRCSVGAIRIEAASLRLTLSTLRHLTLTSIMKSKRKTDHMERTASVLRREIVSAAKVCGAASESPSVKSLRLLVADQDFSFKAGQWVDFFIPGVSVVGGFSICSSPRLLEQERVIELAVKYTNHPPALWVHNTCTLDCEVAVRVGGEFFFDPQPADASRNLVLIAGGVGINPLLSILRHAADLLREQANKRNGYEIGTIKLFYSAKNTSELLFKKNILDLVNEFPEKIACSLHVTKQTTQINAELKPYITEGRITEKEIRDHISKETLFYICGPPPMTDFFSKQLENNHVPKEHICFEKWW
UniProt O95989: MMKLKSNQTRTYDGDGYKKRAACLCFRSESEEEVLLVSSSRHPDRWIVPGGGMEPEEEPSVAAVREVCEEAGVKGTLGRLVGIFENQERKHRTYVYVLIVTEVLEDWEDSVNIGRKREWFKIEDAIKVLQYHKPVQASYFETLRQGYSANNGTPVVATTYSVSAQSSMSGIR
UniProt Q9Y5Y2: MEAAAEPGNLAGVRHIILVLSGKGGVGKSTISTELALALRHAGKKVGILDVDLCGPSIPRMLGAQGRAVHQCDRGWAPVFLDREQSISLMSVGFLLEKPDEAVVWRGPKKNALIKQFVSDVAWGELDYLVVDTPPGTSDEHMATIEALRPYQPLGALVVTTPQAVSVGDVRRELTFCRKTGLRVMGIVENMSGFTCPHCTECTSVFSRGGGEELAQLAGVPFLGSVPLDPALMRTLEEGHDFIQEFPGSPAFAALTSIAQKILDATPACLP

Columns and labels:
Test in all cases: log2 fold change, soluble protein after heating vs DMSO (PISA); higher = thermal stabilisation; K562 cells, 10 uM, 30 min; active = over 0.2 and 3.5 SD of the protein, either way, in both replicates (recomputed)
saracatinib = compound: CN1CCN(CCOc2cc(OC3CCOCC3)c3c(Nc4c(Cl)ccc5c4OCO5)ncnc3c2)CC1 [saracatinib]
Procedure, shortened: (§1)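 Values are thermal stability changes relative to control samples and are taken from duplicates. They are stated as log2 fold changes. Before quantification by TMTpro 16plex LC-MS/MS with equalised channel sums, K562 cells at 2×10^6 cells/mL were treated with 10 μM compound for 30 min, heated in aliquots for 3 min across 48°C-58°C, pooled, extracted in PBS with 0.5% NP-40 at 4°C, and centrifuged at 21,000xg for 90 min to give the soluble supernatant.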

sotrastaurin = compound: CN1CCN(c2nc(C3=C(c4c[nH]c5ccccc45)C(=O)NC3=O)c3ccccc3n2)CC1 [sotrastaurin]
Procedure, shortened: as §1

alvocidib = compound: CN1CC[C@H](c2c(O)cc(O)c3c(=O)cc(-c4ccccc4Cl)oc23)[C@H](O)C1 [alvocidib]
Procedure, shortened: as §1

Tubastatin A = compound: CN1CCc2c(c3ccccc3n2Cc2ccc(C(=O)NO)cc2)C1 [Tubastatin A]
Procedure, shortened: as §1

[1] = compound: CNC(=O)C1=CC=CC=C1NC2=NC(=NC=C2Cl)NC3=C(C=C(C=C3)N4CCOCC4)OC
Procedure, shortened: as §1

defactinib = compound: CNC(=O)c1ccc(Nc2ncc(C(F)(F)F)c(NCc3nccnc3N(C)S(C)(=O)=O)n2)cc1 [defactinib]
Procedure, shortened: as §1

rucaparib = compound: CNCc1ccc(-c2[nH]c3cc(F)cc4c3c2CCNC4=O)cc1 [rucaparib]
Procedure, shortened: as §1

[2] = compound: CNc1nc(-c2ccc3c(N)n[nH]c3c2)cc(N2C[C@@H](C(=O)NC3CCCCC3)CC[C@H]2C)n1
Procedure, shortened: as §1

encorafenib = compound: COC(=O)N[C@@H](C)CNc1nccc(-c2cn(C(C)C)nc2-c2cc(Cl)cc(NS(C)(=O)=O)c2F)n1 [encorafenib]
Procedure, shortened: as §1

[3] = compound: COC(=O)[C@H](CCSC)NC(=O)C1=C(C=C(C=C1)NC[C@H](CS)N)C2=CC=CC=C2
Procedure, shortened: as §1

Measured: log2 fold change

NUTF2 (UniProt P61970)
inactive: saracatinib 0.102 | sotrastaurin -0.013 | alvocidib -0.111 | Tubastatin A 0.015 | [1] 0.024 | defactinib -0.032 | rucaparib -0.052 | [2] 0.106 | encorafenib 0.004 | [3] 0.095

NT5C (UniProt Q8TCD5)
inactive: saracatinib 0.029 | sotrastaurin 0.077 | alvocidib 0.01 | Tubastatin A -0.004 | [1] -0.035 | defactinib 0.02 | rucaparib -0.022 | [2] -0.027 | encorafenib -0.044 | [3] 0.014

NUP62 (UniProt P37198)
inactive: saracatinib -0.134 | sotrastaurin -0.027 | alvocidib -0.061 | Tubastatin A -0.01 | [1] -0.002 | defactinib -0.029 | rucaparib 0.066 | [2] -0.008 | encorafenib 0.037 | [3] 0.02

OGN (UniProt P20774)
inactive: saracatinib -0.077 | sotrastaurin 0.203 | alvocidib -0.181 | Tubastatin A -0.092 | [1] 0.349 | defactinib -0.121 | rucaparib -0.263 | [2] 0.046 | encorafenib 0.004 | [3] -0.068

NUB1 (UniProt Q9Y5A7)
inactive: saracatinib -0.037 | sotrastaurin -0.085 | alvocidib -0.05 | Tubastatin A 0.153 | [1] 0.06 | defactinib -0.017 | rucaparib 0.153 | [2] 0.09 | encorafenib 0.044 | [3] 0.055

P4HB (UniProt P07237)
inactive: saracatinib 0.031 | sotrastaurin 0.05 | alvocidib 0.027 | Tubastatin A -0.045 | [1] 0.067 | defactinib 0.014 | rucaparib -0.097 | [2] -0.048 | encorafenib -0.021 | [3] 0.044

NUDT19 (UniProt A8MXV4)
inactive: saracatinib 0.054 | sotrastaurin 0.002 | alvocidib -0.026 | Tubastatin A 0.052 | [1] 0.008 | defactinib -0.049 | rucaparib 0.017 | [2] -0.046 | encorafenib -0.01 | [3] -0.016

OMA1 (UniProt Q96E52)
inactive: saracatinib 0.04 | sotrastaurin 0.048 | alvocidib 0.015 | Tubastatin A 0.081 | [1] -0.075 | defactinib -0.017 | rucaparib -0.044 | [2] -0.005 | encorafenib 0.032 | [3] 0.033

PABPC1 (UniProt P11940)
inactive: saracatinib -0.002 | sotrastaurin 0.016 | alvocidib 0.111 | Tubastatin A 0.002 | [1] 0.043 | defactinib 0.098 | rucaparib 0.197 | [2] -0.028 | encorafenib -0.032 | [3] 0.063

NSMCE3 (UniProt Q96MG7)
inactive: saracatinib -0.031 | sotrastaurin -0.027 | alvocidib 0.005 | Tubastatin A -0.127 | [1] 0.033 | defactinib 0.09 | rucaparib 0.121 | [2] -0.047 | encorafenib 0 | [3] -0.041

NUP214 isoform 5 (UniProt P35658)
inactive: saracatinib -0.092 | sotrastaurin -0.154 | alvocidib 0.025 | Tubastatin A 0.063 | [1] 0.03 | defactinib 0 | rucaparib 0.24 | [2] 0.125 | encorafenib 0.159 | [3] -0.078

NUP37 (UniProt Q8NFH4)
inactive: saracatinib -0.04 | sotrastaurin -0.028 | alvocidib -0.021 | Tubastatin A -0.019 | [1] 0.074 | defactinib -0.046 | rucaparib -0.03 | [2] -0.072 | encorafenib 0.026 | [3] 0.003

NSUN2 (UniProt Q08J23)
inactive: saracatinib 0.008 | sotrastaurin -0.243 | Tubastatin A -0.008 | [1] -0.081 | rucaparib -0.021 | [2] -0.083 | encorafenib 0.004 | [3] 0.009
active: alvocidib -0.328 | defactinib -0.281

NSMCE1 (UniProt Q8WV22)
inactive: saracatinib 0.013 | sotrastaurin -0.018 | alvocidib -0.035 | Tubastatin A 0.011 | [1] 0.249 | defactinib 0.13 | rucaparib 0.061 | [2] 0.026 | encorafenib 0 | [3] -0.19

P4HA1 (UniProt P13674)
inactive: saracatinib -0.107 | sotrastaurin -0.043 | alvocidib 0.088 | Tubastatin A 0.021 | [1] 0.011 | defactinib 0.093 | rucaparib 0.04 | [2] 0.024 | encorafenib 0.113 | [3] -0.002

NUP50 (UniProt Q9UKX7)
inactive: saracatinib 0.053 | sotrastaurin -0.015 | alvocidib 0.002 | Tubastatin A -0.029 | [1] -0.016 | defactinib -0.016 | rucaparib 0.015 | [2] 0.016 | encorafenib -0.026 | [3] 0.009

OCRL (UniProt Q01968)
inactive: saracatinib -0.035 | sotrastaurin -0.016 | alvocidib -0.032 | Tubastatin A 0.009 | [1] 0.106 | defactinib 0.048 | rucaparib -0.048 | [2] -0.033 | encorafenib 0.076 | [3] -0.101

NSUN4 (UniProt Q96CB9)
inactive: saracatinib -0.064 | sotrastaurin 0.055 | alvocidib -0.06 | Tubastatin A 0.005 | [1] -0.01 | defactinib 0.08 | rucaparib 0.177 | [2] 0.074 | encorafenib 0.051 | [3] -0.076

ORC4 (UniProt O43929)
inactive: saracatinib -0.039 | sotrastaurin -0.098 | alvocidib -0.095 | Tubastatin A 0.023 | [1] -0.083 | defactinib -0.107 | rucaparib 0.034 | [2] 0.034 | encorafenib 0.111 | [3] -0.003

OIP5 (UniProt O43482)
inactive: saracatinib 0.008 | sotrastaurin 0.047 | alvocidib -0.162 | Tubastatin A -0.005 | [1] -0.006 | defactinib -0.037 | rucaparib -0.024 | [2] -0.027 | encorafenib 0.015 | [3] 0.048

OARD1 (UniProt Q9Y530)
inactive: saracatinib -0.112 | sotrastaurin -0.021 | alvocidib -0.111 | Tubastatin A 0.077 | [1] 0.034 | defactinib -0.14 | rucaparib 0.147 | [2] 0.086 | encorafenib -0.031 | [3] -0.027

NUDT16L1 (UniProt Q9BRJ7)
inactive: saracatinib 0.048 | sotrastaurin 0.052 | alvocidib -0.008 | Tubastatin A -0.062 | [1] -0.017 | defactinib 0.049 | rucaparib 0.007 | [2] 0.092 | encorafenib 0.004 | [3] -0.021

NT5C2 (UniProt P49902)
inactive: saracatinib 0.037 | sotrastaurin 0.037 | alvocidib -0.018 | Tubastatin A 0.01 | [1] -0.035 | defactinib -0.043 | rucaparib -0.076 | [2] -0.058 | encorafenib -0.007 | [3] -0.013

OTUD5 isoform 5 (UniProt Q96G74)
inactive: saracatinib 0.063 | sotrastaurin -0.034 | alvocidib -0.095 | Tubastatin A 0.05 | [1] -0.01 | defactinib -0.102 | rucaparib -0.04 | [2] -0.008 | encorafenib -0.031 | [3] 0.104

OGA (UniProt O60502)
inactive: saracatinib 0.014 | sotrastaurin 0.011 | alvocidib -0.121 | Tubastatin A -0.044 | [1] 0.011 | defactinib -0.009 | rucaparib 0.003 | [2] -0.012 | encorafenib -0.028 | [3] 0.037

Random excerpt: two records from the list, in no set order.
NSUN4 (UniProt Q96CB9)
inactive: saracatinib -0.064 | sotrastaurin 0.055 | alvocidib -0.06 | Tubastatin A 0.005 | [1] -0.01 | defactinib 0.08 | rucaparib 0.177 | [2] 0.074 | encorafenib 0.051 | [3] -0.076

OCRL (UniProt Q01968)
inactive: saracatinib -0.035 | sotrastaurin -0.016 | alvocidib -0.032 | Tubastatin A 0.009 | [1] 0.106 | defactinib 0.048 | rucaparib -0.048 | [2] -0.033 | encorafenib 0.076 | [3] -0.101

(next part)

ODR4 (UniProt Q5SWX8)
inactive: saracatinib 0 | sotrastaurin -0.014 | alvocidib -0.086 | Tubastatin A 0.014 | [1] -0.033 | defactinib -0.025 | rucaparib 0.078 | [2] 0.03 | encorafenib 0.012 | [3] 0.027

OXNAD1 (UniProt Q96HP4)
inactive: saracatinib 0.025 | sotrastaurin 0.02 | alvocidib -0.024 | Tubastatin A -0.014 | [1] -0.015 | defactinib 0.025 | rucaparib -0.036 | [2] 0 | encorafenib -0.016 | [3] -0.007

OGFOD3 isoform 2 (UniProt Q6PK18)
inactive: saracatinib -0.049 | sotrastaurin 0.016 | alvocidib -0.021 | Tubastatin A -0.034 | [1] 0.101 | defactinib -0.015 | rucaparib 0.146 | [2] -0.028 | encorafenib 0.074 | [3] -0.008

NUDT3 (UniProt O95989)
inactive: saracatinib -0.027 | sotrastaurin 0.013 | alvocidib 0.009 | Tubastatin A 0.143 | [1] -0.018 | defactinib -0.052 | rucaparib -0.074 | [2] -0.031 | encorafenib -0.039 | [3] 0.028

NUBP2 (UniProt Q9Y5Y2)
inactive: saracatinib 0.017 | sotrastaurin 0.016 | alvocidib -0.169 | Tubastatin A -0.043 | [1] -0.055 | defactinib -0.07 | rucaparib 0.033 | [2] 0.047 | encorafenib 0.043 | [3] -0.006
